One substance from PMC12663190 can be followed below.

Chains of the proteins cited; added tags and fusions are not shown.
UniProt P07437: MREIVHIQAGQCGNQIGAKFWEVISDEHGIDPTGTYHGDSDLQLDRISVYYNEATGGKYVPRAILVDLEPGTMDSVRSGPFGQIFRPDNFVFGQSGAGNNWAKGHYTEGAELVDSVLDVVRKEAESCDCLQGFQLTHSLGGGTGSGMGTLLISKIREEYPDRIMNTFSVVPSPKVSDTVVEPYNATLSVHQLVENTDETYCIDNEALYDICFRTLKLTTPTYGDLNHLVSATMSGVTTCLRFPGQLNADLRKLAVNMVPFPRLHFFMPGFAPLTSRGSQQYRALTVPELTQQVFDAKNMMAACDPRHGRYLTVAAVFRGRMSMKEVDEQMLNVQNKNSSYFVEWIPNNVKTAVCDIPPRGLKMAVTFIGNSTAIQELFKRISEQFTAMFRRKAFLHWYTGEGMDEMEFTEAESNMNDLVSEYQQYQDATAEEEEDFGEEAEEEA

No constants are given. Whether binding was seen depends on the method and setting. Binding seen in cells or lysates may run through a third protein. Here binding means that the protein was enriched with, or labelled near, the bait; the list need not be complete. Where a sequence is shown, tags or fusion partners need not be part of it.

The assay has as its target T1, GFP-USP13 (from pLenti-CMV-Flag-USP13-GFP-Puro) (UniProt Q92995).
T1 sequence: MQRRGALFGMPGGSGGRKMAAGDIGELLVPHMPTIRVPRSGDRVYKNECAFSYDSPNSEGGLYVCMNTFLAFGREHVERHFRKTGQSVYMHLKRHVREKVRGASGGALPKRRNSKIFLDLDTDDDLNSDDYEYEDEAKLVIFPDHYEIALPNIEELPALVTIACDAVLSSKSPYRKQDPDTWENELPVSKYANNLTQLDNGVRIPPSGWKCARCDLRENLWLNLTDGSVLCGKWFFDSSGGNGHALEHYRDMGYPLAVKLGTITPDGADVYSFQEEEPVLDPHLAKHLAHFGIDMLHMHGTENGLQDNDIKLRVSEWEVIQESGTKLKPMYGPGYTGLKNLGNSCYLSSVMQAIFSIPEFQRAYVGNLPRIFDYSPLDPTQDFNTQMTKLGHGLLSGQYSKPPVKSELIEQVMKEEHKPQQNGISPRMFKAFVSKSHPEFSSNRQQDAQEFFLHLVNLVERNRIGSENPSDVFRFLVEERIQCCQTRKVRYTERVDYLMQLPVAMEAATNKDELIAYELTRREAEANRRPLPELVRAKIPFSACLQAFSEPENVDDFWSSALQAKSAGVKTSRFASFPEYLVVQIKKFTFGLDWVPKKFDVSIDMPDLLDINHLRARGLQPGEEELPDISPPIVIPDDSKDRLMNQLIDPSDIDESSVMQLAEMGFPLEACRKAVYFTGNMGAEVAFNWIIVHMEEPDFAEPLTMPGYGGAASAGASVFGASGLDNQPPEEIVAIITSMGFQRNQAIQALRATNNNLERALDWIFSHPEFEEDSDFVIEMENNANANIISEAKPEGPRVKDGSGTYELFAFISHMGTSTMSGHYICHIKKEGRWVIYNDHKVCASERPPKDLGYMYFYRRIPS
As to the kind of experiment: affinity purification with mass spectrometry; HEK293T cells lysed 48 h after transfection; co-IP with USP13 pull-down; on-bead trypsin digestion; LC-MS/MS.

As to TUBB (from UniProt P07437 1-444), the binding entry is given as “binds”.
